From doi:10.1101/701474 come the findings set out here.

The chains behind the UniProt entries cited, without tags or fusion partners.
UniProt P14635: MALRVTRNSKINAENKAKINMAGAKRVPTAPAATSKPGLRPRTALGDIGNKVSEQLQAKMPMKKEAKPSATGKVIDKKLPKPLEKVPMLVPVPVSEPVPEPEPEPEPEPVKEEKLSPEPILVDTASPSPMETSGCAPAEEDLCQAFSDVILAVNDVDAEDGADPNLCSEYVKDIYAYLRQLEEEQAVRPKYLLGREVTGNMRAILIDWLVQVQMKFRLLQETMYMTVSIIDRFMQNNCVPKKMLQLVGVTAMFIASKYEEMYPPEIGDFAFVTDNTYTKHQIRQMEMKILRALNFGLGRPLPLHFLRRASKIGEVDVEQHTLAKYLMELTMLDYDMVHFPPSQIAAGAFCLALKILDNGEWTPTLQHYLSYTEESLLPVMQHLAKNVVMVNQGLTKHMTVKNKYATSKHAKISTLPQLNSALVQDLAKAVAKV

No constants are given. Whether binding was seen depends on the method and setting. In cells and extracts the contact can be indirect. These calls come from enrichment with a bait or labelling near it, and not all partners need be listed.

The target in the assay is Cyclin B1 (RPE Cyclin B1-Venus+/-:Ruby-MAD2+/- cells) (human (endogenous in RPE1)) (UniProt P14635). In words: affinity purification with mass spectrometry.

B1: MAD1 (endogenous, parental RPE1 cells) (protein, UniProt Q9Y6D9 1-718)
chain: MEDLGENTMVLSTLRSLNNFISQRVEGGSGLDISTSAPGSLQMQYQQSMQLEERAEQIRSKSHLIQVEREKMQMELSHKRARVELERAASTSARNYEREVDRNQELLTRIRQLQEREAGAEEKMQEQLERNRQCQQNLDAASKRLREKEDSLAQAGETINALKGRISELQWSVMDQEMRVKRLESEKQELQEQLDLQHKKCQEANQKIQELQASQEARADHEQQIKDLEQKLSLQEQDAAIVKNMKSELVRLPRLERELKQLREESAHLREMRETNGLLQEELEGLQRKLGRQEKMQETLVGLELENERLLAKLQSWERLDQTMGLSIRTPEDLSRFVVELQQRELALKDKNSAVTSSARGLEKARQQLQEELRQVSGQLLEERKKRETHEALARRLQKRVLLLTKERDGMRAILGSYDSELTPAEYSPQLTRRMREAEDMVQKVHSHSAEMEAQLSQALEELGGQKQRADMLEMELKMLKSQSSSAEQSFLFSREEADTLRLKVEELEGERSRLEEEKRMLEAQLERRALQGDYDQSRTKVLHMSLNPTSVARQRLREDHSQLQAECERLRGLLRAMERGGTVPADLEAAAASLPSSKEVAELKKQVESAELKNQRLKEVFQTKIQEFRKACYTLTGYQIDITTENQYRLTSLYAEHPGDCLIFKATSPSGSKMQLLETEFSHTVGELIEVHLRRQDSIPAFLSSLTLELFSRQTVA
Take B1: the binding entry is reported as “binds”.
